According to article PMC4385925:
These are yes or no findings as the source states them, for the method shown. In cells and extracts the contact can be indirect. Some entries that bind do so weakly or less than the wild type. Each block holds one substance with its values, some of them ahead of it.

Chains of the proteins cited; added tags and fusions are not shown.
UniProt O43791: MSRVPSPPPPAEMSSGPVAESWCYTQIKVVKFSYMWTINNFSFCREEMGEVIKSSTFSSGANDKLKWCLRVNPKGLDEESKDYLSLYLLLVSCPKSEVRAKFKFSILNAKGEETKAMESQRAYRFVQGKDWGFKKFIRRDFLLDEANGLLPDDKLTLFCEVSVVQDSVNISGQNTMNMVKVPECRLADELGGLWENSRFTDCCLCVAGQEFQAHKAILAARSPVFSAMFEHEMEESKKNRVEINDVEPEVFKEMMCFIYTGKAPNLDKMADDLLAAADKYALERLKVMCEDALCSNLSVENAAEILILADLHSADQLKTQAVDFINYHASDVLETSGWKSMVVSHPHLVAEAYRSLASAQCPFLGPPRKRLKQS
UniProt P03372: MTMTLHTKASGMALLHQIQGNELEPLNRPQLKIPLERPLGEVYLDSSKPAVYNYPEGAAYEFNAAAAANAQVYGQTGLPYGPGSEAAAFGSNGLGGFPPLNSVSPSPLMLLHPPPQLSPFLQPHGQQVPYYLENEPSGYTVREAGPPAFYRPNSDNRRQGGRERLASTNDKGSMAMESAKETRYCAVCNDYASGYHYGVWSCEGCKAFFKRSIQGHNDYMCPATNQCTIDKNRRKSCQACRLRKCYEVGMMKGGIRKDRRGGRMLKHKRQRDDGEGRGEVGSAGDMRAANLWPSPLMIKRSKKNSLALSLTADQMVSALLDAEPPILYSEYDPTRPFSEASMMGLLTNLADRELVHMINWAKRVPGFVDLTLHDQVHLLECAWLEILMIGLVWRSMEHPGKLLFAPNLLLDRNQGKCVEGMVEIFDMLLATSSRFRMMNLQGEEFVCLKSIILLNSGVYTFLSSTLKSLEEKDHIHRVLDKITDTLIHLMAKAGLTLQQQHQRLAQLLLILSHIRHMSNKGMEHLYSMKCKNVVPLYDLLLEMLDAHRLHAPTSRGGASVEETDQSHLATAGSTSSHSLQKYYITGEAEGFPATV

Legend:
Myc-SPOP wild type = Myc-SPOP wild type (UniProt O43791); assay: co-IP; 293T cells co-transfected with FH-ERα and Myc-SPOP-WT or deletion mutants (D1–D8); after 24 h lysates immunoprecipitated with anti-Myc antibody; Western blot
FLAG-HA (FH)-SPOP = FLAG-HA (FH)-SPOP (UniProt O43791); assay: co-IP; 293T cells co-transfected, lysed 24 h later in BC100 buffer; anti-FLAG M2 agarose beads at 4 °C overnight, eluted with FLAG peptide, Western blot; in one panel cells treated with 10 nM 17β-estradiol (E2) or ethanol for 4 h (more SPOP co-precipitated with E2)
[1] = biological target: FLAG-HA (FH)-ERα wild type (UniProt P03372); assay: as above
[2] = biological target: endogenous ERα (Ishikawa cells) (human (endogenous in Ishikawa)) (UniProt P03372); assay: co-IP; endogenous proteins; Ishikawa cells treated with 20 μM MG132 for 4 h, lysed in 1x cell lysis buffer; anti-ERα antibody overnight, protein A/G beads, 4 °C; Western blot

- binding (Myc-SPOP wild type): binds
Substance: FLAG-HA (FH)-ERα wild type (from UniProt P03372 1-595)

- binding (FLAG-HA (FH)-SPOP): binds
Substance: Myc-ERα (from UniProt P03372 1-595)

- binding [1]: binds
Substance: Myc-SPOP wild type (from UniProt O43791 1-374)

- binding [2]: binds
Substance: endogenous SPOP (Ishikawa cells) (from UniProt O43791 1-374)
